Data source: PubChem BioAssay AID652243 (Drosophila RNAi Screening Center, 2013)
The deposit covers about 24,000 reagents; shown is an unselected part of those that have a named target and a result. In the full data, 246 (1%) are marked active. 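Plates not normalised; calls are printed but the firefly/Renilla ratio behind them is not deposited; fold cut for lowering reported inconsistently.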 Raw values are not corrected between plates. Unmarked entries are inactive. The numbers tell different reagents against one gene apart. Not given: the amount of reagent.

Purpose: 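Knock-downs that decrease or increase androgen receptor reporter signal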 (primary screen)
Cell system: Drosophila S2R+ cells
Reagent: long dsRNA against Drosophila genes
Time to read-out: 72 h (48 h, then 24 h hormone)
Treatment: synthetic androgen R1881 at 10 nM for 24 h
Measured: 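Per-well raw luminescence of the androgen-driven firefly reporter and of the Renilla control, two replicates each, without normalisation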
Reading the numbers: firefly reporter light: higher = more light from androgen-responsive reporter; Renilla control light: higher = more constitutive control signal (cell number, transfection)
Active means: 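Across duplicate plates, a knock-down whose log firefly/Renilla ratio shifted a set fold down or up from the GFP/LacZ control mean was a hit; the downward cut appears as both 1.5 and 3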
Calls: active = hit: reporter lowered or raised; inactive = no hit

The opening 2 entries as a preview:
no.	predicted target	reagent	firefly reporter light, replicate 1	firefly reporter light, replicate 2	Renilla control light, replicate 1	Renilla control light, replicate 2
1	bgcn (benign gonial cell neoplasm)	1	3.27e5	3.57e5	2.16e6	1.67e6
2	bgcn (benign gonial cell neoplasm)	2	2.87e5	3.48e5	1.73e6	1.65e6

The listing, from the start:
no.	predicted target	reagent	firefly reporter light, replicate 1	firefly reporter light, replicate 2	Renilla control light, replicate 1	Renilla control light, replicate 2
1	bgcn (benign gonial cell neoplasm)	1	3.27e5	3.57e5	2.16e6	1.67e6
2	bgcn (benign gonial cell neoplasm)	2	2.87e5	3.48e5	1.73e6	1.65e6
3	Damm (Death associated molecule related to Mch2 caspase)	1	3.52e5	2.46e5	2.26e6	1.78e6
4	CG30203	1	2.37e5	1.61e5	1.33e6	1.23e6
5	CG1421	1	2.03e5	1.40e5	1.46e6	9.05e5
6	corto	1	9.47e5	1.03e6	1.16e5	1.72e5
7	corto	2	3.27e5	3.32e5	8.36e5	5.97e5
8	CG10280	1	82166	60320	1.76e6	1.54e6
9	CG10280	2	9.28e5	1.23e6	1.29e6	1.26e6
10	CG5989	1	8.63e5	7.32e5	1.07e6	8.51e5
11	X11Lbeta	1	1.82e5	1.33e5	2.43e6	2.60e6
12	X11Lbeta	2	5.32e5	5.09e5	4.14e6	4.17e6
13	X11Lbeta	3	2.22e5	2.90e5	4.57e5	4.57e5
14	GlcAT-P (Glucuronyltransferase P)	1	8.57e5	7.34e5	1.91e6	2.40e6
15	GlcAT-P (Glucuronyltransferase P)	2	3.91e5	4.54e5	1.91e6	1.62e6
16	Traf4 (TNF-receptor-associated factor 4)	1	1.35e5	1.14e5	7.79e5	8.17e5
17	Traf4 (TNF-receptor-associated factor 4)	2	7.30e5	1.05e6	1.84e6	2.09e6
18	Eps-15 (Epidermal growth factor receptor pathway substrate clone 15)	1	6.70e5	6.46e5	1.05e6	1.18e6
19	CG10038	1	67989	62891	5.69e5	6.24e5
20	CG42284	1	5.75e5	5.50e5	8.59e5	8.05e5
21	CG42284	2	6.26e5	7.73e5	1.55e6	7.89e5
22	Csas (CMP-sialic acid synthase)	1	2.09e5	9.34e5	1.97e5	7.31e5
23	TrxT (Thioredoxin T)	1	6.70e5	9.73e5	1.27e6	1.73e6
24	CG15529	1	1.42e5	2.02e5	1.82e6	2.67e6
25	erm (earmuff)	1	7.79e5	1.08e6	2.45e6	2.57e6
26	RpL10 (Ribosomal protein L10)	1	2.32e5	1.85e5	3.74e6	4.10e6
27	Spg7 (Paraplegin)	1	3.39e5	2.26e5	4.49e6	3.57e6
28	Rpt4 (Regulatory particle triple-A ATPase 4)	1	1.45e5	1.38e5	1.80e6	1.84e6
29	CG17267	1	2.19e5	2.54e5	3.37e6	3.04e6
30	Cyp4p2 (Cytochrome P450 4p2)	1	1.24e6	1.25e6	1.64e6	1.04e6
31	Cyp4p2 (Cytochrome P450 4p2)	2	4.01e5	3.46e5	3.98e5	4.15e5
32	ldbr (lariat debranching enzyme)	1	4.97e5	5.61e5	5.12e5	8.96e5
33	CG31784	1	1.88e5	2.17e5	6.48e5	6.65e5
34	CG42788	1	1.91e5	1.08e5	2.25e6	2.36e6
35	CG42788	2	79410	1.06e5	1.33e6	1.47e6
36	CG42788	3	87644	1.01e5	1.48e6	1.79e6
37	CG42788	4	3.00e5	2.99e5	4.47e5	7.40e5
38	CG2962	1	1.17e5	2.00e5	1.07e6	1.07e6
39	CG2962	2	3.43e5	3.31e5	8.30e5	5.93e5
40	Hsp23 (Heat shock protein 23)	1	8.36e5	8.86e5	8.18e5	1.23e6
41	Hsp23 (Heat shock protein 23)	2	3.25e5	5.86e5	8.11e5	1.25e6
